Source: patent publication US8361793B2, “Monoclonal antibodies against gonadotropin-releasing hormone receptor” (Vancouver Biotech Ltd., priority 2009, dated 2013)

Test system: ovarian cancer tissues
Assay: Immunohistochemical (IHC) staining of ovarian tissues using GHR-106
Set-up: species or system human

B1: GHR-106: monoclonal antibody against synthetic peptide of positions 1-29 of the extracellular domain of human GnRH receptor; hybridoma ATCC PTA-10252 (antibody, V domains shown)
VL: MDSQAQVLILLLLWVSGTCGDIVMSQSPSSLAVSAGEKVTMSCKSSQSLLNSRTRKNYLAWYQQKPGQSPKLLIYWASTRESGVPDRFTGSGSGTDFTLTISSVQAEDLAVYYCKQSYNLYTFGGGTKLEIK
VH: QVQLKESGPGLVAPSQSLSITCTVSGFSLSRYSVHWVRQPPGKGLEWLGMIWGGGSTDYNSALKSRLSISKDNSKSQVFLKMNSLQTDDTAMYYCARGNDGYYSFAYWGQGTLVTVSS
modifications: Synthetically constructed monoclonal antibody GHR106
- IHC staining of normal controls (13 normal controls): no staining
- positive IHC staining rate (ovarian cancer stage I): about 40%
